Measured values taken from the supplement of paper PMC10849652.
This is one part of the list.

By UniProt entry, the sequences of proteins in these tests, tags left out. Where a name states a change or a piece, a line headed by the entry shows the natural chain unless it says otherwise.
UniProt Q9UFW8: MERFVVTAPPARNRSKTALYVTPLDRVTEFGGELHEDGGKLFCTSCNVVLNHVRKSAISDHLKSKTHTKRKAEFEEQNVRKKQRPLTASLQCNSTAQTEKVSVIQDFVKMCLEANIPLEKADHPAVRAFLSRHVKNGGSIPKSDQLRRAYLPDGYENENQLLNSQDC
UniProt Q9UPN4: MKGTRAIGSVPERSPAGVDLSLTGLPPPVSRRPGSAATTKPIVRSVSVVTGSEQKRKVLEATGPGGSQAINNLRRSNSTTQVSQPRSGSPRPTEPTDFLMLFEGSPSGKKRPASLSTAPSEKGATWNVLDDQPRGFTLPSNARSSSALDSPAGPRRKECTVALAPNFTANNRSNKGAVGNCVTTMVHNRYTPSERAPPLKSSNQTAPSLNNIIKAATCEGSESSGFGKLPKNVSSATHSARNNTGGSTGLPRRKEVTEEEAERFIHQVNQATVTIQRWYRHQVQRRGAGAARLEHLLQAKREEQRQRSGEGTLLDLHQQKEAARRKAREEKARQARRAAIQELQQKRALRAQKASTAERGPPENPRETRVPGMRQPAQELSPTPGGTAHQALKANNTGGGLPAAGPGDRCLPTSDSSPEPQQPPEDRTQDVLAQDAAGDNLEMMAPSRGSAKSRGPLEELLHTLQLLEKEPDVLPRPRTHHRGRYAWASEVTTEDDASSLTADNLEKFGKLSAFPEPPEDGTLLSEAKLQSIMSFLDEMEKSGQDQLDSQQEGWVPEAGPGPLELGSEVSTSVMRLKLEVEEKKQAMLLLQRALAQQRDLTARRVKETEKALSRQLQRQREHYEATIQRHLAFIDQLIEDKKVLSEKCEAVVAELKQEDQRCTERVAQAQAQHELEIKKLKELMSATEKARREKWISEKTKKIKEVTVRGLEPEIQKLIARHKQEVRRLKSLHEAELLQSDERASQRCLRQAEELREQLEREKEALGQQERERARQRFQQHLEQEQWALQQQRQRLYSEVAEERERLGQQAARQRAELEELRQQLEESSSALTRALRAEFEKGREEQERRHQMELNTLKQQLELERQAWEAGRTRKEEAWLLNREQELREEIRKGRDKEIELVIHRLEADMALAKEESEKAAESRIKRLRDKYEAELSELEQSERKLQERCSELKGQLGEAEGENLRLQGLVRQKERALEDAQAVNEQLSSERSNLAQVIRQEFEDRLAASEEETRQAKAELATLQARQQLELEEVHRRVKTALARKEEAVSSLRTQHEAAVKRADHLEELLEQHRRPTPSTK
UniProt Q8IW35: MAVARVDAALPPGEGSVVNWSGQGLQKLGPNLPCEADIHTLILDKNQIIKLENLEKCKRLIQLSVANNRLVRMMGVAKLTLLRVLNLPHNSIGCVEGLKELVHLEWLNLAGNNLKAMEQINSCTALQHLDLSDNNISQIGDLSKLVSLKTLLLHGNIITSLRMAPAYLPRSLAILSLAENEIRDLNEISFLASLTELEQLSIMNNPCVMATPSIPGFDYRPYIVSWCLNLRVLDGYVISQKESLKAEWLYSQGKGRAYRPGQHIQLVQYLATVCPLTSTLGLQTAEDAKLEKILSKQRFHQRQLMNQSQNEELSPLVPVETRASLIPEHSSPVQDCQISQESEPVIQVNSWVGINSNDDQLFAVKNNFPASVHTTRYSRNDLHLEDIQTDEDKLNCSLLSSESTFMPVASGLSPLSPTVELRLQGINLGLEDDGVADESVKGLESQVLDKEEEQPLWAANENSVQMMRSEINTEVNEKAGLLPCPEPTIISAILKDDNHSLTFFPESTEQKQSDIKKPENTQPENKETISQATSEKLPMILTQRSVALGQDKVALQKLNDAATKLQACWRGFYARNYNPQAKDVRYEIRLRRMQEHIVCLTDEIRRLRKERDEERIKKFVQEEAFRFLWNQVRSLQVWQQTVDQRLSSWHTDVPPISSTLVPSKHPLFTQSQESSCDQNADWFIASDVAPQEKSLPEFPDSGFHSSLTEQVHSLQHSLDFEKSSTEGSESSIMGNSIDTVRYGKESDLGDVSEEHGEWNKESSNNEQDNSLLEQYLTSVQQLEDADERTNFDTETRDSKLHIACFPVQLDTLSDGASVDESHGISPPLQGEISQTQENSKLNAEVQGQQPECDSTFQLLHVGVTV
UniProt P57076: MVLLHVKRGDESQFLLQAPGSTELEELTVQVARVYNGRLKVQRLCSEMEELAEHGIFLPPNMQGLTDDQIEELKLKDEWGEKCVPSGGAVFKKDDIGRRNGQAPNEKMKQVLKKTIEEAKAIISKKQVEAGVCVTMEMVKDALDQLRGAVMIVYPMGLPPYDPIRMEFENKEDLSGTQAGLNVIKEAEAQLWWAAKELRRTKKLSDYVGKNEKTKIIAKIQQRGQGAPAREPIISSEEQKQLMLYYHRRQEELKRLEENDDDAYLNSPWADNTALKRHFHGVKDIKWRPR
UniProt O75794: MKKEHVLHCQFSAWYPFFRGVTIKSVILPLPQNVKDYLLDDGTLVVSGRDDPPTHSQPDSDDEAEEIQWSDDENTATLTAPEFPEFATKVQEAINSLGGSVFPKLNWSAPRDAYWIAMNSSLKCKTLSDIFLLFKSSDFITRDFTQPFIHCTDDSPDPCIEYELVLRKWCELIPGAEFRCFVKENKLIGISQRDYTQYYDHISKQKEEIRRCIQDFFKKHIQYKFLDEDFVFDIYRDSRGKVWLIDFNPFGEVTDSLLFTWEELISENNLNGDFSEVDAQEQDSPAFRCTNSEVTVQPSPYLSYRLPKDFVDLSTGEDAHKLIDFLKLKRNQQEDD
UniProt Q03701: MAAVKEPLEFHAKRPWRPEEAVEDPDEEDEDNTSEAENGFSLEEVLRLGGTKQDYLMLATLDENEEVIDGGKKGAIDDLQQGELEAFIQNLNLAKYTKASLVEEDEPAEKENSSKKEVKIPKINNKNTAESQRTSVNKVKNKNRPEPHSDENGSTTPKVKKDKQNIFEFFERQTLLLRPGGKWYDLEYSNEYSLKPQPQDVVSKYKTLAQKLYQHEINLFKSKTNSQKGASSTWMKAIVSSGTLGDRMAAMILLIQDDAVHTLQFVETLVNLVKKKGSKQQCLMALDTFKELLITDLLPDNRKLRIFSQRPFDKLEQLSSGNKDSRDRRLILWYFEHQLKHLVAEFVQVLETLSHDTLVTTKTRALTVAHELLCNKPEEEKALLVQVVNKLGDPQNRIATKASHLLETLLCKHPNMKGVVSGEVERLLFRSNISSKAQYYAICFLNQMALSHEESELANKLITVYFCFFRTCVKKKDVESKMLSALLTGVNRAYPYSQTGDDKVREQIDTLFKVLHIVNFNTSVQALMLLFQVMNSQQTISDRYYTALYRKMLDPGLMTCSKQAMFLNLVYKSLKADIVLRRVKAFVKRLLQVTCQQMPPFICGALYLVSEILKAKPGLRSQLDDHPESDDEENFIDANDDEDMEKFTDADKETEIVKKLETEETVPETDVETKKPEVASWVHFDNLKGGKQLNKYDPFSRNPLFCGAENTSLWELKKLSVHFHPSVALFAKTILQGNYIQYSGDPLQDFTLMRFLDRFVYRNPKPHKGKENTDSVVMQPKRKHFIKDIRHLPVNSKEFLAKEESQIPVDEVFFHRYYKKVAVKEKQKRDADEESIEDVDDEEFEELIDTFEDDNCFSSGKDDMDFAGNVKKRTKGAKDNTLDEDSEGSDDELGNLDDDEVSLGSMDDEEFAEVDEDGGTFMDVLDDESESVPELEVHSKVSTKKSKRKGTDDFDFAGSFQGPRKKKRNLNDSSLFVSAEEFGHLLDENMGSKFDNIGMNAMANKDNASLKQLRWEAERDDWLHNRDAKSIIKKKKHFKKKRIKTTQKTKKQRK
UniProt Q00587: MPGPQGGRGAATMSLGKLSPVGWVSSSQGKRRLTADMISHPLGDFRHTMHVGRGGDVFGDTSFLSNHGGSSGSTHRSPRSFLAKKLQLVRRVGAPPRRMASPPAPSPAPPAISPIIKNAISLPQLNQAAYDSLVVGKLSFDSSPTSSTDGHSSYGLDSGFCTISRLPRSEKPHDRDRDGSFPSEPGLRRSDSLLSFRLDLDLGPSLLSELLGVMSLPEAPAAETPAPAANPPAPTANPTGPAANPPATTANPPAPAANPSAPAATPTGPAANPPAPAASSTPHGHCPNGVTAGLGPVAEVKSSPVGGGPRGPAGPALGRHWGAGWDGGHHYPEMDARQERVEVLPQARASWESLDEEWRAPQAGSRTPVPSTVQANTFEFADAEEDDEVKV
UniProt Q86X02: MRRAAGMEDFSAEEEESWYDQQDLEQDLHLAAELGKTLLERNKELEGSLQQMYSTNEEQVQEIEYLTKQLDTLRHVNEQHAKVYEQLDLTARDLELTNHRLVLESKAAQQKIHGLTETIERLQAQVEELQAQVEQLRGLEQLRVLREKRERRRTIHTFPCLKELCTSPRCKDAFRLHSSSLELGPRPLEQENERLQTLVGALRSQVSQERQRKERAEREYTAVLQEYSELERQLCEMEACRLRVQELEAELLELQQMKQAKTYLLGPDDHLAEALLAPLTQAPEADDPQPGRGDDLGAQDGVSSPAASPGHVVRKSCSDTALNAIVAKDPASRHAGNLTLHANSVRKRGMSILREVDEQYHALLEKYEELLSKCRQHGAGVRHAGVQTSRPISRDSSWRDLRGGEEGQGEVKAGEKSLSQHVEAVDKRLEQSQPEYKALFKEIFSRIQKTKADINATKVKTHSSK
UniProt Q99459: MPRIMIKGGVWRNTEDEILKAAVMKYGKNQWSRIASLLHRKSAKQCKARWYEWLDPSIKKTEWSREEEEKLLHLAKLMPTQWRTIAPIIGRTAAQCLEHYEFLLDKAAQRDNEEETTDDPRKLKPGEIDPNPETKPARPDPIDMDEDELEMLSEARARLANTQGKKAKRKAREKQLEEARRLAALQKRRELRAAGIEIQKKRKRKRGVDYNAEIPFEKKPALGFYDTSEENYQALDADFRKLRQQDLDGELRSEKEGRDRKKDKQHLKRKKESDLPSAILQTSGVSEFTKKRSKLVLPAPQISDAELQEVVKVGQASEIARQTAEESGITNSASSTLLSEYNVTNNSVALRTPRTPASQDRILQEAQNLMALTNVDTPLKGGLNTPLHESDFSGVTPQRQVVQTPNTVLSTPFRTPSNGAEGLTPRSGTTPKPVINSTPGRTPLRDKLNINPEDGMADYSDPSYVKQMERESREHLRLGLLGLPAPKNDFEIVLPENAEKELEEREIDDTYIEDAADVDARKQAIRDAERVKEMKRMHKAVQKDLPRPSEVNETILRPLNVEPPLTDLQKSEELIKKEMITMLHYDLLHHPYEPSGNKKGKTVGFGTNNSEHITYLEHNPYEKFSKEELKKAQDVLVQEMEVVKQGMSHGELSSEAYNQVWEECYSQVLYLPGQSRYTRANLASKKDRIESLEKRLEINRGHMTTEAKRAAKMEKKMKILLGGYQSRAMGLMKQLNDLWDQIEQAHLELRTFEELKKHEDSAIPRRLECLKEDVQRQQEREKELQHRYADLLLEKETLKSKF
UniProt Q9H3R5: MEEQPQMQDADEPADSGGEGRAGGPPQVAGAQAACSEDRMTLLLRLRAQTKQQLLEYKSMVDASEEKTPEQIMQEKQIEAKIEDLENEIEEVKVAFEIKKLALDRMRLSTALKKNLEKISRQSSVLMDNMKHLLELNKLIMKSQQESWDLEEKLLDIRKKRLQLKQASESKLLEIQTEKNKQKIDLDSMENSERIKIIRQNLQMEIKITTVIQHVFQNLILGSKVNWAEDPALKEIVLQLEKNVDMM
UniProt Q96G28: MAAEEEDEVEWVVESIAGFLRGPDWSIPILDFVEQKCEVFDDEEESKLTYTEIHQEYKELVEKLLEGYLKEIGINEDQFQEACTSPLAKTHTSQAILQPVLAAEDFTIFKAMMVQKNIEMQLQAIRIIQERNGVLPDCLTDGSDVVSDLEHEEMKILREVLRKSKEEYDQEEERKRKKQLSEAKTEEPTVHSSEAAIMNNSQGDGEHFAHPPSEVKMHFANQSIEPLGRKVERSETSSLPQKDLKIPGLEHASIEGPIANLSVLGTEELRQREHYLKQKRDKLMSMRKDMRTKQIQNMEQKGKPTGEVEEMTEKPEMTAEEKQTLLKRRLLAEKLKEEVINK
UniProt Q8NHZ8, whole entry, looked up: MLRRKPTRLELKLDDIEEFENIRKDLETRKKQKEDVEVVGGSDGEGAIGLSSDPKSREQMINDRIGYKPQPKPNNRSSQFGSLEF
UniProt P50750, whole entry, looked up: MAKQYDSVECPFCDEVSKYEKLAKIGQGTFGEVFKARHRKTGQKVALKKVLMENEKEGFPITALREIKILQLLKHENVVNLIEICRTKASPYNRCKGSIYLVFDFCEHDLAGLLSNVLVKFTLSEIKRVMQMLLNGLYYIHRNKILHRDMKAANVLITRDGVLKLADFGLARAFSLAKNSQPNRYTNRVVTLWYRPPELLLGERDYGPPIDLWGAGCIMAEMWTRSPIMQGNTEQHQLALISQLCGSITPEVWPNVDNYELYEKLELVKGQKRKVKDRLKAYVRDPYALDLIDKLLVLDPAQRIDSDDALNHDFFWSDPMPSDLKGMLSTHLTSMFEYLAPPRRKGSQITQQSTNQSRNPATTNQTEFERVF

Experiments:
Assay in all cases: log2 fold change, soluble protein after heating vs DMSO (PISA); higher = thermal stabilisation; K562 lysate, 10 uM; active = over 0.2 and 3.5 SD of the protein, either way, in both replicates (recomputed)
[1] = compound: C1=CC=C(C=C1)[C@H](COC2=CC3=C(C=C2)NC(=O)N3)NC(=O)C4=CC=CN(C4=O)CC5=CC(=C(C=C5)F)F
Outline: (§1)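 Log-two fold change in thermal stability relative to solvent controls is reported from duplicates. For each sample, crude K562 extract from dounce-homogenised pellets in PBS pH 7.4 with 1 mM MgCl2, at 1 mg/mL protein, was treated with 10 μM compound for 30 min. Aliquots heated for 3 min across 48°C-58°C were pooled, brought to 0.5% NP-40 at 4°C and cleared at 21,000xg for 90 min. The supernatant was quantified by TMTpro 16plex LC-MS/MS with channel sums equalised.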

[2] = compound: CC1=C(SC2=C1C(=N[C@H](C3=NN=C(N32)C)CC(=O)N)C4=CC=C(C=C4)Cl)C
Outline: as §1

[3] = compound: CC1=C2C(=CC=C1)N=C(N(C2=O)C3=CC=CC=C3C)CN4C=NC5=C(N=CN=C54)N
Outline: as §1

[4] = compound: Cc1sc2c(c1C)C(c1ccc(Cl)cc1)=N[C@@H](CC(=O)OC(C)(C)C)c1nnc(C)n1-2
Outline: as §1

[5] = compound: c1ccc([C@@H]2C[C@H]2NC2CCNCC2)cc1
Outline: as §1

Measured: log2 fold change

CEP350 (UniProt Q5VT06)
inactive: [1] -0.038 | [2] 0.008 | [3] 0.007 | [4] 0.009 | [5] 0.034

CGGBP1 (UniProt Q9UFW8)
inactive: [1] 0.131 | [2] -0.03 | [3] 0.002 | [4] 0.001 | [5] -0.033

CEP131 (UniProt Q9UPN4)
inactive: [1] -0.084 | [2] 0.054 | [3] 0.007 | [4] 0.121 | [5] -0.101

CEP97 (UniProt Q8IW35)
inactive: [1] -0.01 | [2] -0.024 | [3] 0.025 | [4] 0.033 | [5] -0.01

CEP250 (UniProt Q9BV73)
inactive: [1] 0.017 | [2] -0.002 | [3] 0.015 | [4] -0.024 | [5] -0.014

CFAP298 (UniProt P57076)
inactive: [1] 0.036 | [2] 0.005 | [3] -0.011 | [4] 0.032 | [5] 0.026

CEP128 (UniProt Q6ZU80)
inactive: [1] -0.38 | [2] 0.338 | [3] -0.023 | [4] -0.125 | [5] -0.507

CENPU (UniProt Q71F23)
inactive: [1] 0.079 | [2] -0.053 | [3] 0.008 | [4] -0.025 | [5] 0.172

CEP120 (UniProt Q8N960)
inactive: [1] -0.074 | [2] 0.097 | [3] 0.145 | [4] -0.169 | [5] 0.184

CDC123 (UniProt O75794)
inactive: [1] -0.035 | [2] 0.02 | [3] -0.038 | [4] 0.073 | [5] 0.004

CDK2AP1 (UniProt O14519)
inactive: [1] 0.051 | [2] -0.17 | [3] -0.118 | [4] -0.033 | [5] -0.045

CEBPZ (UniProt Q03701)
inactive: [1] -0.034 | [2] 0.08 | [3] -0.025 | [4] 0.008 | [5] 0.023

CDC42EP1 (UniProt Q00587)
inactive: [1] 0.034 | [2] -0.092 | [3] 0.077 | [4] -0.104 | [5] 0

CFAP20 (UniProt Q9Y6A4)
inactive: [1] 0.006 | [2] 0.008 | [3] -0.024 | [4] 0.007 | [5] -0.082

CDR2L (UniProt Q86X02)
inactive: [1] -0.04 | [2] 0.031 | [3] -0.153 | [4] 0.093 | [5] 0.02

CDC5L (UniProt Q99459)
inactive: [1] -0.002 | [2] -0.008 | [3] -0.017 | [4] 0.051 | [5] 0.012

CENPH (UniProt Q9H3R5)
inactive: [1] 0.003 | [2] 0.001 | [3] 0.061 | [4] -0.049 | [5] 0.041

CFAP36 (UniProt Q96G28)
inactive: [1] 0.026 | [2] -0.017 | [3] 0.021 | [4] -0.01 | [5] 0.041

CEPT1 (UniProt Q9Y6K0)
inactive: [1] -0.13 | [2] -0.017 | [3] 0.062 | [4] -0.054 | [5] 0.061

CEP170 (UniProt Q5SW79)
inactive: [1] 0.024 | [2] 0.021 | [3] 0.059 | [4] 0 | [5] 0.019

CDC26 (UniProt Q8NHZ8)
inactive: [1] 0.161 | [2] 0.001 | [3] -0.203 | [4] -0.177 | [5] -0.016

CDK5 (UniProt Q00535)
inactive: [1] -0.01 | [2] -0.03 | [3] -0.021 | [4] 0.002 | [5] -0.02

CDK11B (UniProt P21127)
inactive: [1] -0.035 | [2] 0.029 | [3] 0.005 | [4] 0.035 | [5] -0.001

2 records drawn at random from the list so far:
CENPH (UniProt Q9H3R5)
inactive: [1] 0.003 | [2] 0.001 | [3] 0.061 | [4] -0.049 | [5] 0.041

CFAP36 (UniProt Q96G28)
inactive: [1] 0.026 | [2] -0.017 | [3] 0.021 | [4] -0.01 | [5] 0.041

Next results follow:

CDK9 isoform 2 (UniProt P50750)
inactive: [1] -0.001 | [2] -0.043 | [3] -0.015 | [4] -0.008 | [5] -0.114
